# Laboratory results published in the supplement of paper PMC6143611.
# Structures can show the parent of a compound that is named as a salt. ± gives the uncertainty stated by the source. The list shows a part of the results. Baselines shift from plate to plate; read single values as rough.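 A heat-shock-induced fluorescent stripe was set in larval rod outer segments at 6 dpf. Shedding distance ran from stripe to outer segment tip, measured by confocal stacks in about three fish per compound. Controls: 0.2% DMSO vehicle. Flagged compounds showed ≥20% change from same-week control, p < 0.001 (Dunnett test on mixed-effects models).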
# Tested on: Danio rerio larva rod photoreceptor outer segment
# Assay: rod outer segment shedding distance Ds, difference from same-week DMSO control mean; higher = less outer segment shedding
# Conditions: 20 µM; treatment time: 4 days (6-10 dpf)
row,Compound,rod outer segment shedding distance Ds [um]
1,Cc1nc(=O)c2cc(CN(C)c3ccc(C(=O)N[C@@H](CCC(=O)O)C(=O)O)s3)ccc2[nH]1 [Raltitrexed],-1.91 ± 0.26
2,CC(C)(C#N)c1cc(Cn2cncn2)cc(C(C)(C)C#N)c1 [Anastrozole],-1.63 ± 0.23
3,CCC(C)(Oc1ccc(C2(c3ccc(OC(C)(CC)C(=O)O)cc3)CCCCC2)cc1)C(=O)O (configuration not stated) [Clinofibrate],-0.48 ± 0.13
4,COc1ccc2cc([C@H](C)C(=O)O)ccc2c1 [Naproxen],1.31 ± 0.22
5,Cc1cc(Nc2ncnc3ccc(-c4ccc(CNCCS(C)(=O)=O)o4)cc23)ccc1Oc1ccn2ncnc2c1 [HER2-Inhibitor-1],-0.31 ± 0.12
6,CCCCCCCCCCCCCCCC(=O)OC[C@H](O)[C@H]1OC(=O)C(O)=C1O [L-Ascorbyl 6-palmitate],0.14 ± 0.22
7,C=CC[N+]1([C@H]2C[C@H]3[C@@H]4CC[C@H]5C[C@H](O)[C@@H](N6CCOCC6)C[C@]5(C)[C@H]4CC[C@]3(C)[C@H]2OC(C)=O)CCCC1 [Rocuronium Bromide],-0.06 ± 0.24
8,CNCc1ccc(-c2[nH]c3cc(F)cc4c3c2CCNC4=O)cc1,-0.29 ± 0.24
9,CCOC(=O)[C@H](CCc1ccccc1)N[C@@H](C)C(=O)N1Cc2cc(OC)c(OC)cc2C[C@H]1C(=O)O [Moexipril HCl],-0.12 ± 0.27
10,O=C(NCCO[N+](=O)[O-])c1cccnc1 [Nicorandil],-0.54 ± 0.23
11,"CC[C@H](CO)Nc1nc(NCc2ccccc2)c2ncn(C(C)C)c2n1 [Roscovitine (Seliciclib,CYC202)]",-0.31 ± 0.19
12,[I-].[K+] [Potassium Iodide],1.52 ± 0.29

# 3 entries from above, sorted by heavy-atom count, rising.
row,Compound,rod outer segment shedding distance Ds [um]
10,O=C(NCCO[N+](=O)[O-])c1cccnc1 [Nicorandil],-0.54 ± 0.23
4,COc1ccc2cc([C@H](C)C(=O)O)ccc2c1 [Naproxen],1.31 ± 0.22
1,Cc1nc(=O)c2cc(CN(C)c3ccc(C(=O)N[C@@H](CCC(=O)O)C(=O)O)s3)ccc2[nH]1 [Raltitrexed],-1.91 ± 0.26
